{"source": "ChEMBL document CHEMBL4513136", "about": "“CO-ADD screening of CSIC (Spain) compounds”", "note": "Some of the results follow. Potency and affinity values are given separately.", "data": [{"tested_on": "Acinetobacter baumannii", "settings": "Concentration 32 ug.mL-1; ASSAY_TEST Inhibition of Bacterial Growth; detection method Absorption (OD600); MEDIA CAMHB; plate type 384well; NBS; CORNING #3640; time 18 hr", "units": {"Inhibition": "%"}, "values": [{"smiles": "COC(=O)c1c(C(Cc2ccccc2)NC(=O)OCc2ccccc2)[nH]c2ccccc12", "note": "(stereo unspecified)", "Inhibition": 2.72}, {"smiles": "COc1ccc(C(=O)/C=C/c2ccc(OC)cc2OC)cc1", "Inhibition": 2}, {"smiles": "O=C(OCc1ccccc1)N1C(=O)C(c2ccccc2NC(=O)C(F)(F)F)=C(O)C1Cc1ccccc1", "note": "(stereo unspecified)", "Inhibition": -0.34}, {"smiles": "COc1ccc(OC)c(CC(=O)Nc2cc(OC)ccc2OC)c1", "Inhibition": 12.47}, {"smiles": "COc1ccccc1/C=C/C(=O)c1cc(OC)c(OC)cc1OC", "Inhibition": 1.46}, {"smiles": "O=C(/C=C/c1ccccc1O)c1cc(O)c(O)cc1O", "Inhibition": 6.82}, {"smiles": "COc1ccc(OC)c(C(=O)/C=C/c2ccccc2O)c1", "Inhibition": 7.89}, {"smiles": "O=C(Cc1cc(O)ccc1O)Nc1ccc(O)cc1", "Inhibition": 15.39}, {"smiles": "O=C(Cc1cc(O)ccc1O)Nc1ccc(O)cc1O", "Inhibition": 0.38}, {"smiles": "O=C(/C=C/c1c[nH]c2ccc(O)cc12)c1cc(O)ccc1O", "Inhibition": 9.7}, {"smiles": "COc1ccc(OC)c(CC(=O)Nc2ccc(OC)cc2OC)c1", "Inhibition": 4.05}, {"smiles": "COc1ccc(OC)c(C(=O)/C=C/c2ccc(O)cc2)c1", "Inhibition": 4.6}, {"smiles": "COC(=O)C1(Cc2ccc(OCc3c(Cl)cccc3Cl)cc2)C(C)C(=O)N1Cc1ccc(OC)cc1", "note": "(stereo unspecified)", "Inhibition": 6.7}, {"smiles": "COc1ccc(OC)c(-c2cn(-c3ccc(OC)c(OC)c3)nn2)c1", "Inhibition": 1.88}, {"smiles": "COc1ccc(NC(=O)Cc2cc(OC)ccc2OC)cc1", "Inhibition": 10.5}, {"smiles": "CC1C(=O)N(Cc2ccc(OCCN3CCOCC3)cc2)C1(Cc1ccccc1)C(=O)O", "note": "(stereo unspecified)", "Inhibition": 10.79}, {"smiles": "COc1ccc(OC)c(C(=O)/C=C/c2c[nH]c3ccc(OC)cc23)c1", "Inhibition": 11.59}, {"smiles": "COc1ccc(OC)c(NC(=O)Nc2ccc(OC)cc2OC)c1", "Inhibition": 2.37}, {"smiles": "O=C(CCc1ccc(O)cc1O)c1cc(O)ccc1O", "Inhibition": 6.13}, {"smiles": "COc1ccc(OC)c(C(=O)CCc2ccc(O)cc2)c1", "Inhibition": -7.99}, {"smiles": "Oc1ccc(O)c(-c2cn(-c3ccc(O)c(O)c3)nn2)c1", "Inhibition": 3.17}, {"smiles": "O=C(Cc1cc(O)ccc1O)Nc1cc(O)ccc1O", "Inhibition": 17.71}, {"smiles": "COc1ccc(CN2C(=O)C(C)C2(Cc2cn(C(=O)OC(C)(C)C)c3ccccc23)C(=O)OC(C)(C)C)cc1", "note": "(stereo unspecified)", "Inhibition": 2.64}, {"smiles": "O=C(Nc1ccc(O)cc1O)Nc1cc(O)ccc1O", "Inhibition": 12.96}, {"smiles": "COc1ccc(OC)c(C(=O)CCc2ccccc2O)c1", "Inhibition": 9.6}, {"smiles": "Oc1ccc(-n2cc(-c3cc(O)ccc3O)nn2)cc1", "Inhibition": 16.02}]}]}
